The other results are listed elsewhere or left out. The main result of the screen is listed elsewhere. These columns were measured beside it and carry no call. The list favours compounds with an active or inconclusive main result. Potencies come from curve fits of mixed quality, noted in brackets.

We go through 55 molecules from PubChem BioAssay AID1487 (National Center for Advancing Translational Sciences (NCATS), 2009).

The assay is described as follows: qHTS Assay for Modulators of Lamin A Splicing. As to conditions: HeLa LMNA splicing GFP/RFP minigene ratio, 48 h. The method, boiled down:
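Read-out is the ratio of GFP to DsRed2 object intensity, acquired by 488 nm laser-scanning cytometry on HeLa lamin A-EGFP minigene reporter cells. Compound incubation 48 hrs at 37 °C in Opti-MEM with 2% FBS; DMSO 0.5% final.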
(qHTS replaces the single test concentration by a dilution series.)

Where [1] appears, read: measured here: RFP viability control channel.
Where [2] appears, read: measured here: GFP splicing reporter channel.

Regarding `O=S(=O)(c1ccccc1)N1CCCC1c1cccs1` (centres undefined), the AC50 under setting [1] is 6.31 µM [falling, full curve, poor fit].

For `COC(=O)c1[nH]c2ccccc2c1NC(=O)CN1CCN(C/C=C/c2ccccc2)CC1`, the AC50 under setting [1] is 0.355 µM [falling, full curve].

As for `COc1ccccc1CNC(=O)C1CC(c2ccc([N+](=O)[O-])cc2)=NO1` (centres undefined), the AC50 reads like this: under setting [2], 31.6 µM [rising, single point]; under setting [1], 35.5 µM [rising, single point].

Take `O=C1/C(=C/c2cccnc2)CCC/C1=C\c1cccnc1`: the AC50 under setting [2] was 25.1 µM [rising, single point].

As to `Cc1cc2ccccc2n1CCNC(=O)c1ccc(S(=O)(=O)N2CCCCC2)cc1`, the half-maximal activity concentration (AC50) under setting [1] was 10 µM [rising, partial curve, poor fit].

`O=C(CSCc1nc2ccccc2[nH]1)N1CCN(c2ccc(F)cc2)CC1`: the AC50 under setting [2] is 3.98 µM [rising, full curve, poor fit] and the AC50 under setting [1] was 6.31 µM [rising, full curve].

Take `NNC(=O)c1ccc2[nH]c3c(c2c1)CCCC3`: the AC50 under setting [1] is 3.98 µM [rising, single point].

As for `COC(=O)C1(C)CN(S(=O)(=O)c2ccc(C)cc2)c2cc(OC)ccc2C1=O` (centres undefined), the half-maximal activity concentration (AC50) is, setting by setting: under setting [2], 14.1 µM [rising, partial curve, poor fit]; under setting [1], 35.5 µM [rising, single point].

For `O=C(Nc1ccc2c(c1)OCCO2)c1cccc2nc3ccccc3nc12`, the AC50 under setting [2] was 2.51 µM [rising, partial curve].

Take `Cc1ccc(NC(=O)Nc2ccc(C(=O)N3CCOCC3)cc2)cc1`: the AC50 under setting [1] was 22.4 µM [rising, single point].

As for `Cc1cccc(NCc2cc(Cl)cc(Cl)c2O)n1`, the half-maximal activity concentration (AC50) is 35.5 µM [rising, single point] under setting [2] and 35.5 µM [rising, single point] under setting [1].

As to `O=C(Nc1ccc2nc(SCC(=O)N3CCCC3)sc2c1)c1ccc(Br)cc1`, the half-maximal activity concentration (AC50) by setting is: under setting [2], 4.47 µM [falling, full curve, poor fit]; under setting [1], 3.98 µM [falling, full curve, poor fit].

In the case of `Cc1cccc(OCC(=O)OCc2cc(=O)n3nc(-c4cccs4)sc3n2)c1`, the AC50 under setting [1] was 0.00562 µM [falling, full curve, poor fit].

On to `COc1ccc(C(=O)N2N=C(c3ccccc3)CC2(O)C(F)(F)F)cc1` (centres undefined), for which the AC50 under setting [2] was 35.5 µM [rising, single point] and the AC50 under setting [1] was 35.5 µM [rising, single point].

For the molecule `NCC1CCC(C(=O)O)CC1` (centres undefined), the AC50 by setting is: under setting [2], 14.1 µM [falling, single point]; under setting [1], 14.1 µM [falling, single point].

Take `N#Cc1nc(COc2ccc(-c3ccccc3)cc2)oc1NCCCN1CCOCC1`: the AC50 is 11.2 µM [rising, single point] under setting [2] and 12.6 µM [rising, single point] under setting [1].

As to `CC(C)n1c(SCC(=O)Nc2ccccc2N2CCCCC2)nc2c1c(=O)n(C)c(=O)n2C`, the AC50 under setting [1] was 5.62 µM [rising, single point].

With `NC(=O)c1cc[n+](CC2=C(C(=O)[O-])N3C(=O)[C@@H](NC(=O)Cc4cccs4)[C@@H]3SC2)cc1`, the AC50 reads like this: under setting [2], 1.12 µM [falling, single point]; under setting [1], 1.58 µM [falling, single point].

Consider `COc1ccc(Nc2nnc(SCC(=O)/C=C3/N(C)c4ccccc4C3(C)C)s2)cc1`, for which the concentration at half-maximal activity (AC50) by setting is: under setting [2], 22.4 µM [rising, single point]; under setting [1], 17.8 µM [rising, partial curve].

Turning to `O=C(CSc1nnc(Cc2csc(Nc3cccc(Cl)c3)n2)o1)N1CCc2ccccc21`, the AC50 under setting [1] was 14.1 µM [rising, partial curve].

Take `Cc1ccc(Cl)cc1N1CCN(C(=O)C2CCN(c3nnc(-n4cccc4)s3)CC2)CC1`: the AC50 under setting [2] is 1.26 µM [rising, partial curve, poor fit] and the AC50 under setting [1] is 2.51 µM [rising, full curve].

With `CNC(=S)N/N=C/c1cn(Cc2c(F)cccc2Cl)c2ccccc12`, the AC50 is 14.1 µM [rising, single point] under setting [2] and 25.1 µM [rising, single point] under setting [1].

As for `O=C(c1ccccc1Cl)N1N=C(c2ccc(Br)cc2)CC1c1nc2ccccc2[nH]1` (centres undefined), the half-maximal activity concentration (AC50) is 25.1 µM [falling, single point] under setting [2] and 35.5 µM [falling, single point] under setting [1].

As for `CCOC(=O)c1cccc(NC(=O)c2cc3sccc3n2C)c1`, the AC50 under setting [1] is 22.4 µM [rising, single point].

In the case of `COc1ccc(N2CCN(C(=O)Cc3nn(C)c(=O)c4ccccc34)CC2)cc1`, the AC50 under setting [1] is 35.5 µM [rising, single point].

Take `CCC(=O)OCCNc1cc(SCCC(=O)OC)c2nonc2c1[N+](=O)[O-]`: the AC50 under setting [2] was 1 µM [falling, partial curve, poor fit].

For `O=c1cc(-c2ccccc2)c2cc3c(cc2[nH]1)OCCO3`, the AC50 under setting [1] is 35.5 µM [rising, single point].

In the case of `CCCCC(=O)NC(=S)Nc1ccc(NC(=O)C(C)C)c(OC)c1`, under setting [2], the AC50 is 0.0158 µM [falling, full curve].

Consider `Cc1nnc(NC(=O)CSc2nccn2-c2ccc(Cl)cc2)s1`, for which the AC50 is 22.4 µM [falling, partial curve, poor fit] under setting [2] and 39.8 µM [falling, partial curve, poor fit] under setting [1].

Regarding `Cc1ccc(C)n1-c1ccc(C(=O)NC2CCN(Cc3ccccc3)CC2)cc1`, the AC50 is, setting by setting: under setting [2], 15.8 µM [rising, partial curve]; under setting [1], 14.1 µM [rising, partial curve].

Turning to `Cc1ccc(CSCCNC(=O)c2ccc(N(C)S(=O)(=O)c3ccccc3)cc2)cc1`, under setting [1], the half-maximal activity concentration (AC50) was 15.8 µM [rising, single point].

Take `COc1cc([N+](=O)[O-])cc(/C=N/N(CCC#N)C(C)=O)c1O`: the AC50 under setting [2] was 8.91 µM [rising, partial curve, poor fit] and the AC50 under setting [1] was 10 µM [rising, partial curve, poor fit].

On to `O=c1oc2ccccc2n1CCc1ccccc1`, for which the AC50 under setting [1] was 15.8 µM [rising, single point].

For `COc1cc(C)c(Cl)cc1S(=O)(=O)NCc1ccncc1`, the AC50 under setting [1] was 2.82 µM [rising, full curve].

For the molecule `COC(=O)c1c(C)oc2ccc(NS(=O)(=O)c3cccs3)cc12`, the concentration at half-maximal activity (AC50) is, setting by setting: under setting [2], 17.8 µM [rising, partial curve]; under setting [1], 14.1 µM [rising, single point].

As for `CC(=O)c1ccc(N2CCN(C(=O)c3ccc(OCc4c(C)noc4C)cc3)CC2)cc1`, the half-maximal activity concentration (AC50) runs as follows: under setting [2], 5.62 µM [rising, partial curve]; under setting [1], 31.6 µM [rising, single point].

Take `N#Cc1c(-c2ccccc2)nc(-c2ccncc2)[nH]c1=O`: the AC50 under setting [2] was 0.0631 µM [rising, full curve, poor fit].

In the case of `CCN(CC)S(=O)(=O)N1CCC(C(=O)NC2CCCC2)CC1`, the AC50 under setting [1] was 14.1 µM [falling, partial curve, poor fit].

In the case of `Nc1nonc1-n1nnc(C(=O)N/N=C/c2cc(Br)ccc2O)c1CSC1=NCCS1`, the AC50 under setting [1] is 10 µM [rising, partial curve].

With `COCCNC(=O)/C(C#N)=C/c1ccc(C)o1`, under setting [1], the half-maximal activity concentration (AC50) is 0.0282 µM [falling, full curve, poor fit].

`CCS(=O)(=O)Nc1cccc(C2=NN(S(=O)(=O)c3ccc(C)cc3)C(c3ccco3)C2)c1` (centres undefined): under setting [1], the AC50 is 1.26 µM [rising, single point].

Consider `N#C/C(=C\c1ccc(Cl)s1)C(=O)N1CCN(c2ccccc2)CC1`, for which the AC50 under setting [2] is 12.6 µM [rising, single point] and the AC50 under setting [1] is 14.1 µM [rising, single point].

On to `CCOc1ccc(/C=N/NC(=O)c2c(-c3ccccc3)noc2C)cc1`, for which the AC50 under setting [1] was 2 µM [rising, partial curve].

In the case of `CCCCOc1ccc(-c2nnc(N)s2)cc1`, the AC50 under setting [1] is 4.47 µM [falling, partial curve, poor fit].

For the molecule `Cc1cc(=S)[nH]c(=S)[nH]1`, the AC50 runs as follows: under setting [2], 0.01 µM [rising, full curve, poor fit]; under setting [1], 0.00447 µM [rising, full curve, poor fit].

For the molecule `CCOc1ccccc1OCC(=O)Nc1ccc(N2CCCCC2)cc1`, the concentration at half-maximal activity (AC50) under setting [1] was 14.1 µM [rising, single point].

As for `Cc1csc(SC(C)C(=O)Nc2ccc3c(c2)OCCO3)n1` (centres undefined), the AC50 under setting [2] was 0.0891 µM [falling, full curve, poor fit].

Regarding `CCOC(=O)c1oc2cccc(O)c2c1CN(Cc1ccccc1)C(C)=O`, the AC50 under setting [1] is 15.8 µM [rising, single point].

Consider `CCc1ccc(Nc2nnc(SCC(=O)Nc3sccc3C(N)=O)s2)cc1`, for which the AC50 reads like this: under setting [2], 25.1 µM [rising, partial curve]; under setting [1], 35.5 µM [rising, partial curve].

Consider `COc1ccc(CNC(=O)CN(c2ccc(OC)cc2)S(=O)(=O)c2c(C)nn(C)c2C)cc1`, for which, under setting [2], the AC50 is 2.51 µM [rising, partial curve].

In the case of `N#CC1=C(N)OC2=C(C(=O)CC(c3ccccc3)C2)C1c1ccc2c(c1)OCO2` (centres undefined), the AC50 runs as follows: under setting [2], 31.6 µM [rising, single point]; under setting [1], 31.6 µM [rising, single point].

For the molecule `Cc1ccc(NC(=O)COC(=O)CCC(=O)c2cccs2)c(C)c1`, the AC50 under setting [1] was 35.5 µM [falling, single point].

With `c1ccc(-n2c(SCc3ccncc3)nnc2-c2ccco2)cc1`, under setting [1], the concentration at half-maximal activity (AC50) was 0.794 µM [falling, full curve, poor fit].

On to `Cc1ccc(S(=O)(=O)CCC(=O)N2CCN(c3ccc(Cl)cc3)CC2)cc1`, for which the AC50 is, setting by setting: under setting [2], 35.5 µM [rising, single point]; under setting [1], 35.5 µM [rising, single point].

Regarding `Cc1c(NC(=O)c2ccc3c(c2)OCO3)cccc1-c1nc2ccccc2s1`, the AC50 is, setting by setting: under setting [2], 3.16 µM [rising, single point]; under setting [1], 5.62 µM [rising, single point].

One may read the AC50 as the concentration at which the activity in the assay is half-maximal.
